Reference: US7135499B2, “Active substance combinations having insecticidal and acaricidal properties” (priority 2002, dated 2006)
Several values for one entry are separate records, joined by “and”; a condition that tells them apart may be missing. Equal entries are not always repeated. The name of at least one read-out is uncertain.

System: caterpillars of the armyworm (Spodoptera frugiperda)
Experiment: Spodoptera frugiperda test
Type: in vivo
Details: after 3 d

## Cc1cc(C(F)(C(F)(F)F)C(F)(F)F)ccc1NC(=O)c1cccc(I)c1C(=O)NC(C)(C)CS(C)(=O)=O [(I), N^2-[1,1-dimethyl-2-(methylsulphonyl)ethyl]-3-iodo-N^1-{2-methyl-4-[1,2,2,2-tetrafluoro-1-(trifluoromethyl)ethyl]phenyl}phthalamide]
0.024 ppm
  Kill rate in % found: 35% and 70%
0.12 ppm
  Kill rate in % found: 50% and 30% and 35% and 25%
